Laboratory results as given in publication PMC6744417, “ALKBH overexpression in head and neck cancer: potential target for novel anticancer therapy” (Scientific Reports, 2019).

Tests used:
Assay type in all cases: cell-based, human
Details in all cases: TI = IC50 normal cells (EUFA30)/IC50 cancer cells
[1] = system: BICR18 cells; assay: Alamar Blue viability assay, BICR18
Method: (§1) Alamar Blue (Invitrogen) viability assay was performed according to manufacturer’s protocol: after 4 h incubation, emission at 590 nm was measured with excitation at 560 nm using a scanning multiwall multimode spectrophotometer (DTX 880, Beckman Coulter). The experiment was carried out at least three times, with three replicates for each inhibitor concentration. […] All the calculations were done using Origin 9.0 software.

[2] = system: HeLa cells; assay: Alamar Blue viability assay, HeLa
Method: as §1

[3] = system: U87 cells; assay: Alamar Blue viability assay, U87
Method: Exponentially growing cells at the density of 3 × 10^3 cells/well were seeded onto a 96-well plate, cultured for 18 h followed by the respective treatment of antraquinones or its derivatives in various concentrations or 34 nM RNA interference of ALKBH proteins, and then cultured for a an additional 48 h. Alamar Blue (Invitrogen) viability assay was performed according to manufacturer’s protocol: after 4 h incubation, emission at 590 nm was measured with excitation at 560 nm using a scanning multiwall multimode spectrophotometer (DTX 880, Beckman Coulter). The experiment was carried out at least three times, with three replicates for each inhibitor concentration. After background subtraction, inhibition rates, IC50, values were calculated as the concentration of the component that inhibits cell growth by 50%. All the calculations were done using Origin 9.0 software.

[4] = system: HEK293 cells; assay: Alamar Blue viability assay, HEK293
Method: as §1

SMILES | Therapeutic index BICR18 [1] | Therapeutic index HeLa [2] | Therapeutic index U87 [3] | Therapeutic index HEK293 [4]
O=C1c2cccc(O)c2C(=O)c2c(O)cc(CO)cc21 [Aloe-Emodin] | 6.6 | 14.6 |  | 
Cc1cc(O)c2c(c1)C(=O)c1cc(O)cc(O)c1C2=O [Emodin] | 1.7 | 1.25 | 3.2 | 
Cc1c(C(=O)O)c(O)cc2c1C(=O)c1c(O)c([C@@H]3O[C@H](CO)[C@@H](O)[C@H](O)[C@H]3O)c(O)c(O)c1C2=O [Carminic Acid, Carminic acid] | 1.0 | 0.8 | 1.2 | 1.4
Cc1c(Cl)c(O)c2c(c1Cl)C(=O)c1cc(O)cc(O)c1C2=O [5,7-Dichloroemodin] | 2.6 | 9.6 | 0.6 | 1.2
Cc1cc2c(c(O)c1Cl)C(=O)c1c(O)cc(O)cc1C2=O [7-Chloroemodin] | 1.6 | 4.8 | 1.36 | 0.9
